The other results are listed elsewhere or left out. Further columns of the screen follow, without active or inactive calls. Compounds called inactive in the main read-out are mostly missing here. Potencies come from curve fits of mixed quality, noted in brackets.
Experiment: qHTS Assay to Find Inhibitors of Chronic Active B-Cell Receptor Signaling
Details: ABC-DLBCL IkBa-CBG/CBR reporter, luminescence ratio (green luciferase fused to IkBa over red control in TMD8 lymphoma cells), 4 h
Outline: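 Doxycycline induced both beetle luciferases in TMD8 lymphoma cells; IKK-driven degradation limits the IkappaBalpha-fused green signal, while red luminescence normalises for cell number and nonspecific effects. Compounds tested up to 46 uM, 4 hrs.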

[1] = measured here: CBR red luminescence, cell number
[2] = measured here: IkBa-CBG green luminescence

Row | Structure (SMILES) | AC50 [1] | AC50 [2]
1 | COc1ccc(/C=C2\SC(=O)N(CCC(=O)N(C)C3CCS(=O)(=O)C3)C2=O)cc1 (configuration not stated) | 22.4 µM [falling, single point] | 
2 | O=C(c1cccnc1)N1CCN(S(=O)(=O)c2ccc3ccccc3c2)CC1 | 0.517 µM [falling, full curve, poor fit] | 0.651 µM [rising, partial curve, poor fit]
3 | CCOC(=O)C1CCN(Cc2ccc(F)c(F)c2)CC1 | 0.411 µM [rising, partial curve, poor fit] | 
4 | Cc1cc(NC(=O)C(C)C)ncc1NC(=O)c1cccc(F)c1 | 6.31 µM [falling, single point] | 
5 | C[C@@H]1C=C[C@](Cc2ccccc2)(C(=O)NCCc2c[nH]c3ccccc23)N1C(=O)c1ccccc1 | 11.6 µM [falling, partial curve] | 
6 | CCCCNC(=O)COC(=O)c1ccc(Cl)c(S(N)(=O)=O)c1 | 0.206 µM [falling, full curve, poor fit] | 
7 | CCCSc1nsc(NC(=O)CCC)n1 | 35.5 µM [falling, single point] | 
8 | COc1ccc(-c2noc(-c3ccccc3-c3ccccc3)n2)cc1 | 12.6 µM [rising, partial curve] | 
9 | COc1ccc(NCc2n[nH]nc2-c2ccccc2)cc1Cl | 9.2 µM [rising, partial curve] | 
10 | COc1ccc(CC(=O)NNC(=O)c2ccc(SCc3cc(F)ccc3F)c([N+](=O)[O-])c2)cc1 | 17.8 µM [rising, single point] | 
11 | Nc1nc(N)c(C=Nc2ccc(Br)cc2)c(Nc2ccc(Br)cc2)n1 | 8.91 µM [rising, partial curve] | 
12 | CC1CCN(c2nc3ccc(C(=O)N4CCN(Cc5ccc6c(c5)OCO6)CC4)cc3s2)CC1 | 7.31 µM [falling, partial curve] | 
13 | COc1ccccc1N(CC(=O)NC1CCCCC1)C(=O)CCC(=O)Nc1ccccn1 | 8.2 µM [falling, partial curve, poor fit] | 
14 | CSc1ccccc1NC(=O)CN(C)C(=O)Cc1c[nH]c2ccccc12 | 16.4 µM [falling, single point] | 
15 | O=C(c1ccc2c3n(nc2c1)-c1ccc(Cl)cc1CO3)N1CCCCC1 | 0.708 µM [falling, full curve, poor fit] | 
16 | CCC(C)(C(=O)NC1CCCC1)N(Cc1cccs1)C(=O)Cc1cccs1 (configuration not stated) | 0.82 µM [rising, full curve, poor fit] | 
17 | Cc1ccc(NC(=S)/C(=C(\[O-])c2ccc(Cl)s2)[n+]2cccc(CO)c2)cc1C | 4.47 µM [falling, full curve, poor fit] | 
18 | O=C(CSc1nnc2[nH]c(=O)cc(-c3ccccc3)n12)Nc1ccc(F)cc1F | 2.82 µM [falling, full curve] | 
19 | COC(=O)c1cn(NC(=O)/C=C/c2cccc(OC)c2OC)c(=O)c2ccccc12 | 18.4 µM [rising, partial curve] | 
20 | COc1cc(C(=O)N/N=C(\Cc2ncc[nH]2)c2ccccc2)cc(OC)c1OC | 25.1 µM [rising, partial curve] | 22.4 µM [falling, partial curve]
21 | Cc1ccnc(NC(=O)c2sc3ccccc3c2Cl)c1 | 14.6 µM [falling, single point] | 

Row | Structure (SMILES) | AC50 [1] | AC50 [2]
22 | Cc1ccc(C2=CC(c3c(F)cccc3Cl)n3ncnc3N2)cc1C (configuration not stated) | 35.5 µM [falling, single point] | 
23 | NNc1ccc(Cl)c(C(=O)O)c1 | 22.4 µM [falling, partial curve, poor fit] | 
24 | COc1ccc(/C(C)=C2\SC(=S)N(CCC(=O)O)C2=O)cc1 | 1.64 µM [falling, full curve, poor fit] | 
25 | COC(=O)c1c(NC(=O)c2cccs2)sc2c1CCC(C)C2 (configuration not stated) | 1.78 µM [rising, full curve, poor fit] | 
26 | N#CC1c2ccccc2C=CN1C(=O)c1ccccc1 (configuration not stated) | 3.98 µM [rising, full curve, poor fit] | 
27 | CNC(=O)c1c[nH]c2ccc(S(=O)(=O)Nc3cccc(Cl)c3C)cc2c1=O | 20.6 µM [falling, partial curve, poor fit] | 
28 | NC(=O)c1nn(-c2ccccc2)nc1NC(=O)CN1CCOCC1 | 5.62 µM [falling, single point] | 
29 | O=C(Nc1ccc(F)c(S(=O)(=O)N2CCOCC2)c1)C1CCCCC1 | 11.6 µM [rising, partial curve, poor fit] | 
30 | O=C(NNC(=O)[C@@H]1CCCC[C@@H]1C(=O)O)Nc1ccccc1 | 3.66 µM [rising, partial curve, poor fit] | 
31 | O=C1Nc2ccc(Br)cc2/C1=C/c1ccc(C(=O)O)cc1 | 12.6 µM [falling, partial curve, poor fit] | 
32 | CC(Sc1ccccc1)C(=O)Nc1ccccc1C(=O)N1CCOCC1 (configuration not stated) | 5.17 µM [rising, partial curve, poor fit] | 
33 | O=S(=O)(c1cccc(-c2csc(-c3cccnc3)n2)c1)N1CCOCC1 | 0.708 µM [rising, full curve] | 
34 | O=C(Nc1nccs1)c1ccccc1[N+](=O)[O-] | 7.31 µM [falling, partial curve, poor fit] | 
35 | COC(=O)c1[nH]c2ccc(C)cc2c1NC(=O)CN1CCc2cc(OC)c(OC)cc2C1 | 17.8 µM [falling, single point] | 
36 | O=C(c1ccc(CS(=O)Cc2ccccc2Cl)o1)N1CCN(c2cccc(Cl)c2)CC1 (configuration not stated) | 25.1 µM [falling, single point] | 
37 | CC1=C(C#N)C(c2cccnc2)C2=C(CCCC2=O)N1 (configuration not stated) | 20.6 µM [rising, single point] | 
38 | COc1ccc(-c2[nH]ncc2C=O)cc1OC | 12.6 µM [falling, partial curve, poor fit] | 
39 | COc1cccc(N(C(=O)c2cccs2)c2nc3ccccc3s2)c1 | 14.6 µM [rising, single point] | 
40 | O=C(O)C/C(=C\c1ccc2c(c1)OCO2)c1nc2ccccc2s1 | 10 µM [falling, partial curve] | 
41 | COc1ccc(NC(=O)CSc2ccc(-c3ccccn3)nn2)cc1OC | 16.4 µM [falling, partial curve, poor fit] | 
42 | O=C(O)c1ccc(N2C(=O)c3[nH]nc(-c4ccccc4)c3C2c2ccccc2)cc1 (configuration not stated) | 17.8 µM [falling, partial curve, poor fit] | 

Structural class: the compounds so far with bromine
Row | Structure (SMILES) | AC50 [1] | AC50 [2]
11 | Nc1nc(N)c(C=Nc2ccc(Br)cc2)c(Nc2ccc(Br)cc2)n1 | 8.91 µM [rising, partial curve] | 
31 | O=C1Nc2ccc(Br)cc2/C1=C/c1ccc(C(=O)O)cc1 | 12.6 µM [falling, partial curve, poor fit] | 

(list continues)

Row | Structure (SMILES) | AC50 [1] | AC50 [2]
43 | O=C(c1cc(-c2cccc(O)c2)on1)N1CCCCC1 | 18.4 µM [falling, single point] | 
44 | COc1cc(NC(=O)C(C)Oc2ccccc2)c(C(=O)O)cc1OC (configuration not stated) | 20.6 µM [falling, single point] | 
45 | Oc1ccccc1CNc1ccc(Br)cn1 | 1.12 µM [rising, full curve, poor fit] | 
46 | O=C(COCc1cc(-c2ccco2)on1)NC1CCCCC1 | 6.31 µM [rising, partial curve, poor fit] | 
47 | CCOC(=O)c1[nH]c2cc(OC)c(OC)cc2c1NC(=O)CN1CCN(C)CC1 | 11.6 µM [rising, partial curve, poor fit] | 
48 | Cn1c(N2CCC(C(N)=O)CC2)nc2c1c(=O)n(Cc1ccc(Cl)cc1)c(=O)n2C | 2.59 µM [falling, full curve, poor fit] | 
49 | NC(=O)C1CCN(C(=O)Cn2cccc2C(=O)c2ccccc2)CC1 | 1.16 µM [rising, single point] | 
50 | CC(C)(C)c1cc(CN2CCCC(O)C2)c(O)c(C(C)(C)C)c1 (configuration not stated) | 29.1 µM [rising, single point] | 
51 | COc1cc(-c2c(-c3cccc(C)c3)oc3ccccc23)cc(OC)c1OC | 4.47 µM [falling, full curve, poor fit] | 5.62 µM [rising, partial curve, poor fit]
52 | CCCc1cc(C(=O)N2CCN(c3ccccc3C)CC2)cs1 | 0.13 µM [rising, full curve, poor fit] | 
53 | COc1ccccc1N1CCN(C(=O)COc2cccc3ccccc23)CC1 | 35.5 µM [falling, single point] | 
54 | O=C(Nc1ccccc1)c1ccc(-c2ccccc2)s1 | 3.55 µM [falling, full curve] | 
55 | CSCCC(NS(=O)(=O)c1ccccc1F)C(=O)NCC(C)(C)N1CCOCC1 (configuration not stated) | 29.1 µM [rising, single point] | 
56 | O=C(NCc1nnnn1-c1ccc(F)cc1)c1ccc([N+](=O)[O-])o1 | 4.61 µM [falling, full curve] | 
57 | c1ccc(Cn2ccc(-c3cnc(-c4ccccc4)s3)n2)cc1 | 0.326 µM [rising, partial curve, poor fit] | 
58 | CC(=O)Nc1ccc(NC(=S)Nc2ccc(Br)cc2)cc1 | 15.8 µM [rising, partial curve, poor fit] | 
59 | CCOC(=O)N1CCN(C(=O)CC(C(=O)N2CCc3ccccc32)n2ccnc2)CC1 (configuration not stated) | 12.6 µM [falling, single point] | 
60 | CCOC(=O)c1c(C)[nH]c(C)c1C(=O)CSc1ncccn1 | 6.51 µM [falling, single point] | 6.51 µM [rising, partial curve, poor fit]
61 | COc1ccc(NC(=O)N2CCCC(CNS(=O)(=O)c3cccs3)C2)c(C)c1 (configuration not stated) | 35.5 µM [rising, single point] | 
62 | CCn1nc(C(=O)NCC(c2cccs2)N2CCOCC2)c2ccccc2c1=O (configuration not stated) | 35.5 µM [falling, single point] | 
63 | O=C(CSC1=NCCS1)Nc1ccc(F)cc1 | 35.5 µM [falling, single point] | 

From PubChem BioAssay AID493014 (National Center for Advancing Translational Sciences (NCATS), 2011)
